Laboratory results as given in patent US10766940B2, “Brain penetrant amylin receptor based peptides for Alzheimer's disease” (The Governors of the University of Alberta, priority 2016, dated 2020).
Some results were stated once for a whole list of compounds, not compound by compound. Residues, ends and D or L forms follow the SMILES beside them.

Biological target: T1, AMY3 receptor (Homo sapiens, UniProt O60896+P30988)
T1 construct: expressed in transfected cells; AMY3-293 / AMY3-HEK)
T1 sequence (P30988 25-474): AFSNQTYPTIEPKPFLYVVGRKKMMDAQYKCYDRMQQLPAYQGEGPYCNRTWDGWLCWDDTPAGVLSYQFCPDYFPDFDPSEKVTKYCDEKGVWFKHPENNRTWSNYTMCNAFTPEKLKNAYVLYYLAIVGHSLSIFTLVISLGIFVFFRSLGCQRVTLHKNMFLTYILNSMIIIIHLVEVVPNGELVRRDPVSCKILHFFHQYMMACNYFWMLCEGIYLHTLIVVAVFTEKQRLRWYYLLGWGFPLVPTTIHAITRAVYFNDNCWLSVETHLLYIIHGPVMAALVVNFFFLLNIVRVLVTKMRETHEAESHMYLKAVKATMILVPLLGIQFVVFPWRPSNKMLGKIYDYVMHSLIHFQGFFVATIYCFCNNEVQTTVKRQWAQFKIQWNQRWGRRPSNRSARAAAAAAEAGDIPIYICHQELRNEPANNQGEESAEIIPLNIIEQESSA
T1 sequence (O60896 24-148 partner): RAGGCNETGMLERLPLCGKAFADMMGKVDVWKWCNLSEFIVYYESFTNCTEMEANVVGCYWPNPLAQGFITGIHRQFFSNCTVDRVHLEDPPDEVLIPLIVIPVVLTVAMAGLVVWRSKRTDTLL
Assay: Inhibition of hAmylin-evoked cAMP in AMY3-expressing HEK293 cells
Type: cell-based
Conditions: AMY3-HEK cells, peptide 1 μM
Protocol: a) To investigate peptides amylin receptor affinity, GFP-positive HEK293 cells that stably expressed AMY3 receptor (AMY3-293) as previously reported (Fu et al., 2012) were used. For control, GFP-positive HEK293 wild type cells were used. HEK293 cells were cultured in DMEM (Invitrogen) with 10% FBS (Invitrogen) and grown at 37° C., 5% C02. For cAMP measurements, AMY3-293 cells were plated on 24-well plates overnight. Cells were stimulated for 30 minutes with hAmylin over a concentration range (1 pM-10 μM). Cellular cAMP levels were measured using a parameter cyclic AMP assay kit (R&D Systems) according to the manufacturer's instructions. For in-cell Western blot cAMP quantification, mouse monoclonal anti-cAMP (R&D Systems) was used as a primary antibody, and IRDye 800 goat anti mouse antibody (LI-COR) was used as a secondary antibody. Plates were imaged using an Odyssey Infrared Imaging System (LI-COR), and the integrated intensity was normalized to the total cell number on the same well. Data was plotted, and non-linear regression was fitted with four parameters using Prism software (GraphPad Software, La Jolla, Calif.).
e) For cAMP measurements, AMY3-293 cells were plated on 24-well plates overnight. […] Cellular cAMP levels were measured using a parameter cyclic AMP assay kit (R&D Systems) according to the manufacturer's instructions. […]

## CC(C)C[C@H](NC(=O)[C@H](CCC(=O)O)NC(=O)[C@H](CCC(N)=O)NC(=O)[C@@H](N)CO)C(=O)N[C@@H](Cc1c[nH]cn1)C(=O)N[C@@H](CCCNC(=N)N)C(=O)N[C@@H](CC(C)C)C(=O)N[C@@H](CCC(N)=O)C(=O)N[C@H](C(=O)N[C@@H](Cc1ccc(O)cc1)C(=O)N1CCC[C@H]1C(=O)N[C@@H](CCCNC(=N)N)C(N)=O)[C@@H](C)O [R5] (H-SQELHRLQTYPR-NH2; N-terminus assumed)
  potency relative to AC253 in inhibiting hAmylin induced generation of cAMP: 2-3 times

## LGRLSQELHRLQTY (R14 - peptide fragment of AC253)
  potency relative to AC253 in inhibiting hAmylin induced generation of cAMP: 2-3 times
